Results are given in words; binding and its absence hold for the method and conditions named. Binding can be weak; no strength is given.
Experiments:
[1] = target: T1, Bacillus thuringiensis LexA repressor (B. thuringiensis) (UniProt A0RH75); test: SPR; Biacore T100, 25°C; P3 DNA probes (wild-type spacing, or 5 or 10 nt inserted between dinBox2 and dinBox3) held on a streptavidin chip through the S1 primer; LexA and gp7 injected at 100 μl/min; 25 mM Tris-HCl pH 7.4, 140 mM NaCl, 5 mM EDTA, 2 mM DTT, 0.1 mg/ml BSA, 0.005% P20; both purified
T1 sequence: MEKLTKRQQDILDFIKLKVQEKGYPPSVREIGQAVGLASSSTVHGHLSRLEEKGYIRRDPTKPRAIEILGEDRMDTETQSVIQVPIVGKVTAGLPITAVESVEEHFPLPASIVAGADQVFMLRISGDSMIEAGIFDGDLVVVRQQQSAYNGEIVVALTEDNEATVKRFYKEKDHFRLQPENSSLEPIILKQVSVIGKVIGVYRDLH

[2] = target: T1, Bacillus thuringiensis LexA repressor (B. thuringiensis); test: DNase I footprinting; ^32P-labelled P3 fragment (GIL01 4801-5000); LexA 0-480 nM without or with 340 nM gp7; LexA-induced hypersensitive sites altered by gp7; both purified
[3] = target: T1, Bacillus thuringiensis LexA repressor (B. thuringiensis); test: native gel or EMSA; P^32 end-labelled P3 promoter fragment carrying dinBox2 and dinBox3; LexA 0.17-13.28 nM with 17 nM gp7; gp7 gives a shift of higher molecular weight of the LexA-DNA complex; both purified

Measured: binding

GIL01 phage-encoded protein gp7 (bacteriophage GIL01)
binds: all assays above

Source: article PMC6182141, “Lytic gene expression in the temperate bacteriophage GIL01 is activated by a phage-encoded LexA homologue”
